According to article PMC9713718:
Like-named read-outs stand apart in the source and are kept apart here. No constants are given. Whether binding was seen depends on the method and setting. In cells and extracts the contact can be indirect. Some binding calls cover weakened binding; strength is not graded here. For part of these data: Tags and fused reporters may be left off the sequences shown.

Assays:
[1] = molecular target: T1, Flag-NOD1 (UniProt Q9Y239); test: co-IP; HEK293T cells transiently transfected with tagged proteins; NP-40 lysis buffer, antibody 2 h at 4°C, protein G Dynabeads, washed with ice-cold PBS; Western blot; for p62 with NOD1, NOD2 or RIPK2 also with and without co-expressed IRGM
T1 sequence: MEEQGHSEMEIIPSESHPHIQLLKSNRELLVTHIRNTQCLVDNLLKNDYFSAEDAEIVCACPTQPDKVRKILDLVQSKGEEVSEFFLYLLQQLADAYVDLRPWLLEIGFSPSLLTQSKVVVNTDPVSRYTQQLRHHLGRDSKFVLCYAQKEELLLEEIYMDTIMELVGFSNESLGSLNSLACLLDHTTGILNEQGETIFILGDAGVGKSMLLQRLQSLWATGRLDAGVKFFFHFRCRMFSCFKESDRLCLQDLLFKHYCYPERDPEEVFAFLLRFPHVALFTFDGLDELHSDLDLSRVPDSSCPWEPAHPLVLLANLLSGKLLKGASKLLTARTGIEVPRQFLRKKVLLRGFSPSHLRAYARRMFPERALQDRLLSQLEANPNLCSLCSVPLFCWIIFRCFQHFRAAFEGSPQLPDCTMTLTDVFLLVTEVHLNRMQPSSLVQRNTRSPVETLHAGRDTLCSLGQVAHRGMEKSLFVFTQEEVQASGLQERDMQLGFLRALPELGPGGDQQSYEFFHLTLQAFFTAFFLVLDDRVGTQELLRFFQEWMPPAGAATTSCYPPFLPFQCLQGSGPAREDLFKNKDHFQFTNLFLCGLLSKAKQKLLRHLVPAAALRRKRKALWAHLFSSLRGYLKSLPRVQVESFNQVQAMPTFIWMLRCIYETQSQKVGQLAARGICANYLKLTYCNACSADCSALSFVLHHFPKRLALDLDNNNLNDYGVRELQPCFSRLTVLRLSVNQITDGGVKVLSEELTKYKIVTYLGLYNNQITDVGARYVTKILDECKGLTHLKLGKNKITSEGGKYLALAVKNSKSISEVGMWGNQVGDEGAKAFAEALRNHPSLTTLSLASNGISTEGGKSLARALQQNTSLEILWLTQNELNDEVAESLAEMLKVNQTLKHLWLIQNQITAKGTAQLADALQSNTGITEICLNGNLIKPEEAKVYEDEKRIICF

[2] = molecular target: Flag-NOD2 (UniProt Q9HC29); test: as above
[3] = molecular target: T2, GFP-IRGM (UniProt A1A4Y4); test: co-IP; sequential immunoprecipitation from HEK293T lysate (Flag-RIPK2 or Flag vector, HA-p62, GFP-IRGM, 12 h): first IP with Flag antibody, elution with flag peptide, second IP with anti-GFP
T2 sequence: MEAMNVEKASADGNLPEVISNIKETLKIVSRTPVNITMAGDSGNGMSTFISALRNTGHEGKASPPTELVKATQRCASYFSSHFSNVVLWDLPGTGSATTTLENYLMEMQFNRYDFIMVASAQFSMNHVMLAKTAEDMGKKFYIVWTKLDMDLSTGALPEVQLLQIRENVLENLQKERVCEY

[4] = molecular target: T3, GST-IRGM (UniProt A1A4Y4); test: pull-down; GST fusion purified on Glutathione Sepharose beads incubated with [35S]-labelled in vitro translated Myc-tagged protein in NETN-E buffer (50 mM Tris pH 8.0, 100 mM NaCl, 6 mM EDTA, 0.5% NP-40, 1 mM DTT), 2 h at 4°C; autoradiography; only the target purified
T3 sequence: T2 sequence

[5] = molecular target: T2, GFP-IRGM; test: co-IP; HEK293T cells transiently transfected with tagged proteins; NP-40 lysis buffer, antibody 2 h at 4°C, protein G Dynabeads, washed with ice-cold PBS; Western blot; for p62 with NOD1, NOD2 or RIPK2 also with and without co-expressed IRGM
[6] = molecular target: T3, GST-IRGM; test: pull-down; GST fusion purified on Glutathione Sepharose beads incubated with [35S]-labelled in vitro translated Myc-tagged protein in NETN-E buffer (50 mM Tris pH 8.0, 100 mM NaCl, 6 mM EDTA, 0.5% NP-40, 1 mM DTT), 2 h at 4°C; autoradiography; only the target purified; remark: listed apart in the source

Question: Which results are given for HA-p62 (from UniProt Q13501 1-440)?
Answer: binding [1]: binds; binding [2]: binds; binding [3]: binds

Question: How did the binding [4] turn out when “myc-NOD2, in vitro translated (from UniProt Q9HC29 1-1040)” was run?
Answer: Its binding is “binds”.

B1: Flag-NOD1 (protein, UniProt Q9Y239 1-953)
chain: T1 sequence
Question: How did the binding [5] turn out when B1 was run?
Answer: The binding was “binds”.

B2: myc-NOD1, in vitro translated (protein, UniProt Q9Y239 1-953)
chain: T1 sequence
modifications: [35S] radiolabelled
Question: For B2, which binding [6] is on record?
Answer: Its binding is “binds”.
